# The source gives many values for each of these; only a part stands here.
# Tested on: RNA isoforms in PNN 1-46 SMA type I patient-derived fibroblasts
# Experiment: RNA Abundance Modulation (RNA isoform abundance, iFPM, HiSeq RNA sequencing)
# Assay type: cell-based, human
# Conditions: 3 μM
# Procedure: Cells from a cell line of interest are cultured in conditions sufficient to yield the number of cells capable of generating enough RNA for subsequent sequencing steps. Cells from the tested cell line are contacted with a compound described herein.
# To culture said cells, they are seeded, at appropriate concentrations in a volume of media in a cell culture container and incubated for 4, 5, 6, 7, 8, 9, 10, or more hours. A concentrated solution of compound in a vehicle (e.g., DMSO) is then added in sufficient volume to result in the intended final concentration of the compound, for example 100 nM, 500 nM, 1 μM, 5 μM, 10 μM, 15 μM, 20 μM, or more. The cells may also be treated with vehicle alone, as a control. A number of replicates of each concentration or control may be made (e.g., 2 replicates). The cells are then incubated at a constant temperature appropriate for cell culture of the particular cell line (e.g., 37° C.) for 6, 12, 18, 24, 48, or more hours. After incubation, the growth medium is removed and the cells are washed with the appropriate buffer (e.g., PBS). Cells are then removed from adherence to the cell culture container by treatment with a solution containing trypsin, and the trypsin subsequently quenched with the appropriate volume of buffer (e.g., DMEM-FBS). The cells are then pelleted with gentle centrifugation (e.g., ≤90×g centrifugal force) and resuspended in a buffer to lyse the cells for extraction of RNA. The cell lysates may then be frozen (e.g., at −80° C.) or, alternately, may immediately be used in a procedure to purify the RNA (e.g. by use of the RNEASY PLUS® minikit). The RNA from cell lysates is eluted in the appropriate volume of buffer (e.g., RNEASE-FREE H2O®). The resulting purified RNA may then be sequenced (e.g., using RNASeq) or analyzed using a human exon array (e.g., by GENECHIP® human exon array) to determine changes in the RNA levels in those cells treated with compound compared to those cells treated only with DMSO. The purified RNA may also be quantified by other methods known in the art.
# Using the RNA data obtained from sequencing, exon array, or other methods, a statistical analysis can reveal changes in the RNA levels of compound-treated compared with control. For example, t-test p-values may be calculated for the data obtained through sequencing and exon array methods in order to compare compound-treated cells to those treated with the DMSO control. […] Analysis of the sequencing and exon array data may then also yield predictions about the cause of the aberrant amount of an RNA transcript in the cells (e.g., perturbation of RNA splicing, RNA transcription, or RNA stability). These predictions may be further confirmed by methods known in the art. For example, RT-PCR and RT-qPCR may be used to confirm the change in amount of RNA transcripts for one or more particular transcripts of interest.
# Following the methods described above in Example 1, PNN 1-46 SMA type I patient-derived fibroblasts were treated with 300 nM or 3 μM Compounds 774 and 808 in 0.5% DMSO.
# 700,000 cells were seeded in 10 mL of medium (DMEM plus 10% FBS) in a T-75 flask. Cells were allowed to attach for at least 4 hrs, after which 50 μL of a 200× compound solution (100% DMSO) was added to each well, and the plate was incubated at 37° C. for 24 hrs.
# At the end of the incubation period, the supernatant was removed and the cells where washed with PBS. TrypLE (Invitrogen) express solution was added (e.g. 1.5 mL per one T75 flask). The flasks were incubated for 3 to 5 min at 37° C. The trypsin was then quenched, e.g., by adding 10 mL DMEM-FBS.
# Next, the cells were pelleted using gentle centrifugation without exceeding 90×g centrifugal force. The supernatant was removed and the cell pellet was re-suspended in 600 μL RLT buffer (the RLT buffer was supplemented with beta-mercaptoethanol according to the RNeasy protocol manual) by pipetting up and down until the pellet was completely dissolved […]
compound,measurement,setting,value
CCc1nc(C)cn2nc(-c3cc(=O)n4cc(C5CCN(C)CC5)cc(C)c4n3)cc12 [Compound 774],abs (Cpd-DMSO),HAT1 NR_027862,70 iFPM
same,amp FC (x + 1),HAT1 NR_027862,71.14
same,ave Cpd,HAT1 NR_027862,0 iFPM
same,FC (x + 1),HLTF BC044659,0.2429
same,L2FC (x + 1),HLTF BC044659,−2.041
same,L2abs (Cpd-DMSO),HLTF BC044659,8.27
same,abs (Cpd-DMSO),HLTF BC044659,310 iFPM
same,amp FC (x + 1),HLTF BC044659,4.12
same,ave Cpd,HLTF BC044659,98 iFPM
same,FC (x + 1),HLTF EU446704,0.0091
same,L2FC (x + 1),HLTF EU446704,−6.783
same,L2abs (Cpd-DMSO),HLTF EU446704,6.77
same,abs (Cpd-DMSO),HLTF EU446704,109 iFPM
same,amp FC (x + 1),HLTF EU446704,110.14
same,ave Cpd,HLTF EU446704,0 iFPM
same,FC (x + 1),HLTF NM_003071,0.1448
same,L2FC (x + 1),HLTF NM_003071,−2.787
same,L2abs (Cpd-DMSO),HLTF NM_003071,10.04
same,abs (Cpd-DMSO),HLTF NM_003071,1055 iFPM
same,amp FC (x + 1),HLTF NM_003071,6.90
same,ave Cpd,HLTF NM_003071,178 iFPM
same,FC (x + 1),HLTF NM_139048,0.1355
same,L2FC (x + 1),HLTF NM_139048,−2.883
same,L2abs (Cpd-DMSO),HLTF NM_139048,7.75
same,abs (Cpd-DMSO),HLTF NM_139048,216 iFPM
same,amp FC (x + 1),HLTF NM_139048,7.38
same,ave Cpd,HLTF NM_139048,33 iFPM
same,FC (x + 1),HMGA1 AK301434,6.2225
same,L2FC (x + 1),HMGA1 AK301434,2.637
same,L2abs (Cpd-DMSO),HMGA1 AK301434,2.38
same,abs (Cpd-DMSO),HMGA1 AK301434,5 iFPM
same,amp FC (x + 1),HMGA1 AK301434,6.22
same,ave Cpd,HMGA1 AK301434,5 iFPM
same,FC (x + 1),HMGA1 BC008963,1.0191
same,L2FC (x + 1),HMGA1 BC008963,0.027
same,L2abs (Cpd-DMSO),HMGA1 BC008963,4.59
same,abs (Cpd-DMSO),HMGA1 BC008963,24 iFPM
same,amp FC (x + 1),HMGA1 BC008963,1.02
same,ave Cpd,HMGA1 BC008963,1282 iFPM
same,FC (x + 1),HMGA1 BC063434,1.3507
same,L2FC (x + 1),HMGA1 BC063434,0.434
same,L2abs (Cpd-DMSO),HMGA1 BC063434,8.64
same,abs (Cpd-DMSO),HMGA1 BC063434,398 iFPM
same,amp FC (x + 1),HMGA1 BC063434,1.35
same,ave Cpd,HMGA1 BC063434,1532 iFPM
same,FC (x + 1),HMGA1 M23616,1.3227
same,L2FC (x + 1),HMGA1 M23616,0.403
same,L2abs (Cpd-DMSO),HMGA1 M23616,9.01
same,abs (Cpd-DMSO),HMGA1 M23616,517 iFPM
same,amp FC (x + 1),HMGA1 M23616,1.32
same,ave Cpd,HMGA1 M23616,2117 iFPM
same,FC (x + 1),HMGA1 M23618,0.3132
same,L2FC (x + 1),HMGA1 M23618,−1.675
same,L2abs (Cpd-DMSO),HMGA1 M23618,8.74
same,abs (Cpd-DMSO),HMGA1 M23618,429 iFPM
same,amp FC (x + 1),HMGA1 M23618,3.19
same,ave Cpd,HMGA1 M23618,194 iFPM
same,FC (x + 1),HMGA1 M23619,1.1635
same,L2FC (x + 1),HMGA1 M23619,0.218
same,L2abs (Cpd-DMSO),HMGA1 M23619,9.33
same,abs (Cpd-DMSO),HMGA1 M23619,645 iFPM
same,amp FC (x + 1),HMGA1 M23619,1.16

# — patent US10688099B2, “Methods for modulating the amount of RNA transcripts” (PTC Therapeutics, Inc., priority 2013, dated 2020)
